# Assay results: paper PMC2500221
# Sequences of proteins named here, by UniProt entry; tags and fusion partners are left off. A change or cut given only in a name is not applied to a line headed by its entry.
# UniProt Q7JWH5: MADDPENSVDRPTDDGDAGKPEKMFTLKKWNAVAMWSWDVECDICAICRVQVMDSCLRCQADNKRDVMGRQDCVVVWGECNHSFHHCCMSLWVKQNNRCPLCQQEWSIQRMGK
# UniProt Q9W5E1: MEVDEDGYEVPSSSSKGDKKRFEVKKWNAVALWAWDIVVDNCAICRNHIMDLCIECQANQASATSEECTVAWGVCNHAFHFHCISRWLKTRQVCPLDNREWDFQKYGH
# UniProt Q24311: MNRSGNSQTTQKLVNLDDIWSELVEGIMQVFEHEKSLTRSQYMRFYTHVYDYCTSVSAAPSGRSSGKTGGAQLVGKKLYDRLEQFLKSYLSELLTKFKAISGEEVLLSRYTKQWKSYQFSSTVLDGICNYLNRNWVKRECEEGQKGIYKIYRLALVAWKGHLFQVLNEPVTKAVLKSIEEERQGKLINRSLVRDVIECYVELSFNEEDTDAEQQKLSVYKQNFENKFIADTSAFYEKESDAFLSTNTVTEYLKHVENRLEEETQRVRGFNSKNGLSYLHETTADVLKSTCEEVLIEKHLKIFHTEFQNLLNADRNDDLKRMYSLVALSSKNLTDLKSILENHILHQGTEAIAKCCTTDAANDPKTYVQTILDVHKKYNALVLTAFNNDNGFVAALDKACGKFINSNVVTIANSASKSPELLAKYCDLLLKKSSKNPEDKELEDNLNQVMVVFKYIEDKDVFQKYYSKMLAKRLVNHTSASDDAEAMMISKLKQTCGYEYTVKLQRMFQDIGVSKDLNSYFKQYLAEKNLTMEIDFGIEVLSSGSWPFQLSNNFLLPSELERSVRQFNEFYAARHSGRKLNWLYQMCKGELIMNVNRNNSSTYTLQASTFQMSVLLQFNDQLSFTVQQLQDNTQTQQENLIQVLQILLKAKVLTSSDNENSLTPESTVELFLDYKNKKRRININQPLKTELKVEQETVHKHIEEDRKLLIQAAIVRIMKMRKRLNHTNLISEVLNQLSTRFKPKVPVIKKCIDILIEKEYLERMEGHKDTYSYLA
# UniProt Q9V9R2: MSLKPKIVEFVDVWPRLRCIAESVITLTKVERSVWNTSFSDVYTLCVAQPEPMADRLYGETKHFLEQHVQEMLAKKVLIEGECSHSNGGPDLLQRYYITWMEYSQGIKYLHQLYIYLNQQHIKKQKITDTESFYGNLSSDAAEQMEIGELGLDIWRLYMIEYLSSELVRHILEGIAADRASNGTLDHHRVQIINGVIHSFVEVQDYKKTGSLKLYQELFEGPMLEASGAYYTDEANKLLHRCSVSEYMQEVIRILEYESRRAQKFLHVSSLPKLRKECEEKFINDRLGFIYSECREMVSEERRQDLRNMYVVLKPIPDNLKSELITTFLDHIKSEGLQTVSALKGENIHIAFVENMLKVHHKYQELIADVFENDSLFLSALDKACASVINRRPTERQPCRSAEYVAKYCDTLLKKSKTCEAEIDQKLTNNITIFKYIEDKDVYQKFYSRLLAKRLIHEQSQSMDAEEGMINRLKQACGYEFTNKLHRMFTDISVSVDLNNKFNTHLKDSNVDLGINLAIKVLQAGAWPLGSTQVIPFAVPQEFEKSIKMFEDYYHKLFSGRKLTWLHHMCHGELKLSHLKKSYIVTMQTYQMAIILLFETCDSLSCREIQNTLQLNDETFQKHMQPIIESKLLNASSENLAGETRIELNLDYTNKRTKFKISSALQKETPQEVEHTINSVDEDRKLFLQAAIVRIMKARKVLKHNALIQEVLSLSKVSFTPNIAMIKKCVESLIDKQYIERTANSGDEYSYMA
# These are yes or no findings as the source states them, for the method shown. Binding seen in cells or lysates may run through a third protein. For some assays here: Binding can be weak; no strength is given. For some assays here: Tags and fused reporters may be left off the sequences shown.
# Tests used:
# [1] = biological target: Flag-Roc2 (Drosophila melanogaster) (UniProt Q7JWH5); assay: co-IP; tagged Roc protein or RING-swap chimera immunoprecipitated (anti-FLAG for the FLAG-Roc proteins) from transgenic embryo extracts (0-16 h; NP-40 lysis buffer: 50 mM Tris pH 8.3, 150 mM NaCl, 0.5% NP-40), overnight at 4°C on protein-A beads; co-precipitating endogenous Cullins detected by immunoblot; Flag-Roc1a also tested in the Roc2^KG mutant background (Fig. 8)
# [2] = biological target: Flag-Roc1a (Drosophila melanogaster) (UniProt Q9W5E1); assay: as above
# [3] = biological target: T1, Flag-Roc1b (Drosophila melanogaster) (UniProt Q9NHX0); assay: as above
# T1 sequence: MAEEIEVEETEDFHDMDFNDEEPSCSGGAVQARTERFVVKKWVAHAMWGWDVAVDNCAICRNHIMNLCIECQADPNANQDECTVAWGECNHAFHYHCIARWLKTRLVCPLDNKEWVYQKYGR
# [4] = biological target: T2, V5-Roc1b (control Roc1b construct) (Drosophila melanogaster) (UniProt Q9NHX0); assay: co-IP; V5-tagged Roc or chimera constructs transfected into S2 cells, lysates 48 h later, anti-V5 immunoprecipitation; endogenous Cul1, Cul3, Cul5 detected by immunoblot
# T2 sequence: T1 sequence
Substance,binding [1],binding [2],binding [3],binding [4]
Cul1 (from UniProt Q24311 1-774),no binding,–,–,–
Cul2 (from UniProt Q9V9R2),no binding,binds,no binding,–
Cul3,–,–,binds,binds
Cul4,–,–,no binding,–
Cul5,–,–,no binding,–
